Assay results published in PubChem BioAssay AID1347423 (Functional Genomics Laboratory (NCATS/FGL), 2020).
In all, about 52,000 sequences went through this assay and about 210 (0.4%) were called active.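 The calls were made as follows: active = gene whose silencing raises cell survival under the drug, median off-target-corrected z-score across its silencing RNAs 2 or more; inactive = the rest.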 The list shows a part of the results.

assay: Resistance to Poly (ADP-Ribose) Polymerase inhibitor: Gene Identification via Genome-wide siRNA Screen; conditions: mouse BRCA2 R2336H ES cells, olaparib, CellTiter-Glo viability; hits give high values
Summary of the method: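 Mouse BRCA2 R2336H ES cells were reverse-transfected with siRNA (20 nM final), treated at 48 h with 500 nM olaparib, and read by CellTiter-Glo after 72 h. Scores: MAD-based z per siRNA, median per gene, seed off-target correction.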

Row | Sequence | z-score
1 | GGGAUAGAAAUGAUUGAGGTT against Lhx8 | inactive: -0.0399
2 | CGAGCUUAUCAUCAGCGACTT against 1810060D16Rik | inactive: -0.967
3 | GGGUCCUAAGACUAUUGAUTT against Eif4g1 | inactive: -2.87
4 | GGAGGAUAUCACAACAGAATT against Ftsj3 | inactive: -1.9
5 | GGUUCAGAGAACCUCUCACTT against C78409 | inactive: 0.609
6 | GGACAUGAACAGAGAAGUGTT against Zfp259 | inactive: -1.24
7 | GGGCUUGGUUUUGGACAUUTT against Fuk | inactive: 0.0113
8 | CCUAGAAAGAGGACUCAGATT against 6330583M11Rik | inactive: -0.794
9 | GGGAUUUCUAUAACCCGUUTT against Cldn3 | inactive: -1.13
10 | CCUAACGGUCAGAAGUUGATT against Ccng1 | inactive: 0.555
11 | GGUCUUCAGGGAGUUCUUCTT against Dnajb3 | inactive: 1.03
12 | GCCCAAGGUGAUCAUUAUUTT against Casp1 | inactive: 0.869
13 | GGAGAUCGACAAAUGCCUGTT against Gna13 | inactive: -0.849
14 | CCUCAUCUCAUAUGUUCAGTT against LOC209387 | inactive: -1.24
15 | GCUAACCAACUUAAUUCUATT against Angptl3 | inactive: 1.31
16 | CCUUCCUACCGGAGAAUGATT against Capn6 | inactive: -0.848
17 | GGAAUCAAGGACUUUAGUATT against Slc17a2 | inactive: 0.795
18 | CCUUAGGGAGAUAAGCUUUTT against Olfr604 | inactive: 0.0992
19 | GGAAGUAGGAUGAUGUUGGTT against Hmga1 | inactive: -0.501
20 | GCAAAUGGUUAUGCAUACATT against Clecsf6 | inactive: -0.0391
21 | GGCAUAAAAUCCAUCUAAUTT against Htr2a | inactive: 1.14
22 | CCGGACAAUAUGCUUAUUUTT against Mastl | inactive: 0.982

Row | Sequence | z-score
23 | GGUGUAUACUGUGAAAUCATT against Notch1 | inactive: 1.76
24 | CCACAUCAAGUUCACCCAGTT against Dctn1 | inactive: -0.968
25 | GCCGGAACAUCCAGAAUAGTT against Cpeb2 | inactive: -2.64
26 | AGUCUCCAAAUGCAUUUAATT against Serpinb9g | inactive: -2.48
27 | GCGGCGAGUGUAUAGAUUGTT against Zdhhc1 | inactive: 0.77
28 | GAGGAAGACACUUUUCCUGTT against 2410012H02Rik | inactive: 1.93
29 | CGCAAAAUUCCGAUGGUGCTT against Pla2g12b | inactive: 0.962
30 | CGCAAGAUACCAACACUUATT against A930017E24Rik | inactive: -0.29
31 | GCUAUAUGUACCCUAGCCATT against E130307C13 | inactive: -0.313
32 | GGUUAAAGGCAACCCUGAATT against Cys1 | inactive: -2.51
33 | GGAAAACCCAGGUCAGAAUTT against Serpina9 | inactive: -0.578
34 | GAUCAAAGAGGAGGAGCCCTT against Insm2 | inactive: -0.218
35 | GGCUUGUACUACCAUGACATT against Rasgef1b | inactive: 0.6
36 | GCAGCUAUCUCUCAUGGACTT against Olfr693 | inactive: 0.317
37 | GGAAGAACCUGCCAAGAUCTT against E030049G20Rik | inactive: -1.23
38 | GCAUGCAUAAGCUUUUACCTT against 1700129C05Rik | inactive: 1.07
39 | GAGUGAGCAAAUACCAGUUTT against 1700001J03Rik | inactive: 0.0356
40 | GGGCUUGAUUGAAUCGGCUTT against D5Bwg0860e | inactive: 0.856
41 | GCCUAGAAAGUCUGAAUAATT against Ifng | inactive: -1.03
42 | GUGUUCAGCAAUUCCUACCTT against 1110017O22Rik | inactive: -0.348
43 | GGGAACCAUGAACAAUGUGTT against 9430059P22Rik | inactive: 0.307
44 | GGUGGUGUGCAAAAAGUACTT against Clic1 | inactive: 1.15

Row | Sequence | z-score
45 | CCUCUGACCUAGUUUUUCUTT against 9630020C08Rik | inactive: 0.397
46 | GCUGACUCAUACGAAAAACTT against Pftk1 | inactive: 0.352
47 | GGCAUUCCAGUAAUUUUGGTT against Gpr23 | inactive: 0.235
48 | GGGUCACCGAUGGAAAUCUTT against Lta4h | inactive: 1.31
49 | GCACAACACAAUCUAUAUGTT against Reps2 | inactive: 0.405
50 | GGUUCACCUGUCAAGUGGATT against Hfe | inactive: 0.781
51 | GGCCAUAGAUAUUCAAGGUTT against Olfr218 | inactive: 1.11
52 | CCCGGAUUAUUAAUGAGUCTT against Trim50 | inactive: -0.267
53 | GGUGAACAACUGGUUUAUUTT against Mrg2 | inactive: 0.395
54 | GGUUUGGUGUCAGAUGUCATT against Olfr1182 | inactive: -1.9
55 | CCUUGUCAUUCCAUACAAUTT against Rgs5 | inactive: 0.564
56 | GGAGAACAUCACCAGUUACTT against BC042901 | inactive: 0.45
57 | GGAUGAUCUACACAUUGUGTT against Mrpl4 | inactive: -0.532
58 | GGCUCAUAUUUCCAUCAGATT against S100a17 | inactive: 0.199
59 | CCUGAUGCUUAGCAUAACGTT against Gm225 | inactive: 1.43
60 | GGAGAAAGGCCUUUUCUACTT against Olfr535 | inactive: 0.694
61 | GGAUCUAUGAAGCAAAAAATT against Rasa2 | inactive: 1.17
62 | GGGUUGGUAUAGCUUUCAGTT against 3000002G13Rik | inactive: 2.13
63 | CGAGAUCACGAGAUCGGUUTT against Prdm4 | inactive: 2.21
64 | GGGCUGGAAAGAACUUUACTT against Fgf8 | inactive: -1.26
65 | GGAACUAAAUGUGAAACAUTT against BC037708 | inactive: -0.799
66 | CCAUUUGCUAUUGCUUAAATT against 2210404D11Rik | inactive: 0.589

Reformatted: results already given
Row	Sequence	z-score
46	GCUGACUCAUACGAAAAACTT against Pftk1	inactive: 0.352
48	GGGUCACCGAUGGAAAUCUTT against Lta4h	inactive: 1.31
49	GCACAACACAAUCUAUAUGTT against Reps2	inactive: 0.405
50	GGUUCACCUGUCAAGUGGATT against Hfe	inactive: 0.781
51	GGCCAUAGAUAUUCAAGGUTT against Olfr218	inactive: 1.11
54	GGUUUGGUGUCAGAUGUCATT against Olfr1182	inactive: -1.9
55	CCUUGUCAUUCCAUACAAUTT against Rgs5	inactive: 0.564
57	GGAUGAUCUACACAUUGUGTT against Mrpl4	inactive: -0.532
58	GGCUCAUAUUUCCAUCAGATT against S100a17	inactive: 0.199
59	CCUGAUGCUUAGCAUAACGTT against Gm225	inactive: 1.43
60	GGAGAAAGGCCUUUUCUACTT against Olfr535	inactive: 0.694
61	GGAUCUAUGAAGCAAAAAATT against Rasa2	inactive: 1.17
62	GGGUUGGUAUAGCUUUCAGTT against 3000002G13Rik	inactive: 2.13
64	GGGCUGGAAAGAACUUUACTT against Fgf8	inactive: -1.26
66	CCAUUUGCUAUUGCUUAAATT against 2210404D11Rik	inactive: 0.589
